Measurements as given in publication PMC8384837.
Residue numbers refer to the chain shown, from its start. The list shows a part of the results. For some assays here: At the low end of the ranking the order means little.

Columns and labels:
Conditions in all cases: yeast three-hybrid, YBZ-1, SC-Leu-His + 0.5 mM 3-AT, 4 days
[1] = target: T1, PUM1 PUF domain R4-PRC N971P + H972R + Q975C (UniProt Q14671)
T1 sequence: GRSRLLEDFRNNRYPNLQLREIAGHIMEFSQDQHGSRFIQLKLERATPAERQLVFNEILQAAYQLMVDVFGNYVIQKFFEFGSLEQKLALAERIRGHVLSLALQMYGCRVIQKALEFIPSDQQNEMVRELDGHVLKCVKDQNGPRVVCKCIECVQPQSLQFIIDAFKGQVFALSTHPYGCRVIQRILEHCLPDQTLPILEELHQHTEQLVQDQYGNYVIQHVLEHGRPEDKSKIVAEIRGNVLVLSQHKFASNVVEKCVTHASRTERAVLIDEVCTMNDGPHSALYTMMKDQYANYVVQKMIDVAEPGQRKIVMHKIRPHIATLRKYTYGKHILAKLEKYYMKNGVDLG

[2] = target: T2, PUM1 PUF domain R4-PYF N971P + H972Y + Q975F (UniProt Q14671)
T2 sequence: T1 sequence with R145Y, C148F

[3] = target: T3, PUM1 PUF domain R4-QPA N971Q + H972P + Q975A (Homo sapiens) (UniProt Q14671)
T3 sequence: T1 sequence with P144Q, R145P, C148A

[4] = target: T4, PUM1 PUF domain R4-QRG N971Q + H972R + Q975G (Homo sapiens) (UniProt Q14671)
T4 sequence: T1 sequence with P144Q, C148G

[5] = target: T5, PUM1 PUF domain R4-RCG N971R + H972C + Q975G (Homo sapiens) (UniProt Q14671)
T5 sequence: T1 sequence with P144R, R145C, C148G

[6] = target: T6, PUM1 PUF domain R4-RFP N971R + H972F + Q975P (Homo sapiens) (UniProt Q14671)
T6 sequence: T1 sequence with P144R, R145F, C148P

[7] = target: T7, PUM1 PUF domain R4-RGY N971R + H972G + Q975Y (Homo sapiens) (UniProt Q14671)
T7 sequence: T1 sequence with P144R, R145G, C148Y

[8] = target: T8, PUM1 PUF domain R4-RHL N971R + Q975L (Homo sapiens) (UniProt Q14671)
T8 sequence: T1 sequence with P144R, R145H, C148L

[9] = target: T9, PUM1 PUF domain R4-RIF N971R + H972I + Q975F (UniProt Q14671)
T9 sequence: T1 sequence with P144R, R145I, C148F

[10] = target: T10, PUM1 PUF domain R4-RIY N971R + H972I + Q975Y (UniProt Q14671)
T10 sequence: T1 sequence with P144R, R145I, C148Y

[11] = target: T11, PUM1 PUF domain R4-RLF N971R + H972L + Q975F (UniProt Q14671)
T11 sequence: T1 sequence with P144R, R145L, C148F

[12] = target: T12, PUM1 PUF domain R4-RMG N971R + H972M + Q975G (Homo sapiens) (UniProt Q14671)
T12 sequence: T1 sequence with P144R, R145M, C148G

[13] = target: T13, PUM1 PUF domain R4-RMI N971R + H972M + Q975I (Homo sapiens) (UniProt Q14671)
T13 sequence: T1 sequence with P144R, R145M, C148I

[14] = target: T14, PUM1 PUF domain R4-RMS N971R + H972M + Q975S (Homo sapiens) (UniProt Q14671)
T14 sequence: T1 sequence with P144R, R145M, C148S

[15] = target: T15, PUM1 PUF domain R4-RMT N971R + H972M + Q975T (Homo sapiens) (UniProt Q14671)
T15 sequence: T1 sequence with P144R, R145M, C148T

[16] = target: T16, PUM1 PUF domain R4-RRY N971R + H972R + Q975Y (UniProt Q14671)
T16 sequence: T1 sequence with P144R, C148Y

[17] = target: T17, PUM1 PUF domain R4-RVY N971R + H972V + Q975Y (UniProt Q14671)
T17 sequence: T1 sequence with P144R, R145V, C148Y

[18] = target: T18, PUM1 PUF domain R4-SIG N971S + H972I + Q975G (UniProt Q14671)
T18 sequence: T1 sequence with P144S, R145I, C148G

[19] = target: T19, PUM1 PUF domain R4-SLS N971S + H972L + Q975S (Homo sapiens) (UniProt Q14671)
T19 sequence: T1 sequence with P144S, R145L, C148S

[20] = target: T20, PUM1 PUF domain R4-SLY N971S + H972L + Q975Y (UniProt Q14671)
T20 sequence: T1 sequence with P144S, R145L, C148Y

[21] = target: T21, PUM1 PUF domain R4-SML N971S + H972M + Q975L (Homo sapiens) (UniProt Q14671)
T21 sequence: T1 sequence with P144S, R145M, C148L

[22] = target: T22, PUM1 PUF domain R4-SMS N971S + H972M + Q975S (Homo sapiens) (UniProt Q14671)
T22 sequence: T1 sequence with P144S, R145M, C148S

[23] = target: T23, PUM1 PUF domain R4-SMT N971S + H972M + Q975T (UniProt Q14671)
T23 sequence: T1 sequence with P144S, R145M, C148T

[24] = target: T24, PUM1 PUF domain R4-SNG N971S + H972N + Q975G (Homo sapiens) (UniProt Q14671)
T24 sequence: T1 sequence with P144S, R145N, C148G

[25] = target: T25, PUM1 PUF domain R4-SPC N971S + H972P + Q975C (Homo sapiens) (UniProt Q14671)
T25 sequence: T1 sequence with P144S, R145P

[26] = target: T26, PUM1 PUF domain R4-SPL N971S + H972P + Q975L (Homo sapiens) (UniProt Q14671)
T26 sequence: T1 sequence with P144S, R145P, C148L

[27] = target: T27, PUM1 PUF domain R4-SPQ N971S + H972P (Homo sapiens) (UniProt Q14671)
T27 sequence: T1 sequence with P144S, R145P, C148Q

[28] = target: T28, PUM1 PUF domain R4-SPV N971S + H972P + Q975V (Homo sapiens) (UniProt Q14671)
T28 sequence: T1 sequence with P144S, R145P, C148V

[29] = target: T29, PUM1 PUF domain R4-SQS N971S + H972Q + Q975S (Homo sapiens) (UniProt Q14671)
T29 sequence: T1 sequence with P144S, R145Q, C148S

For “GGCUAGAACUAGUGGAUCCCCCGGCGCCCGGCGGCUCGAGCCCGGGUAAGUGUACAUAGUCUGCAUGCCGCCGGGCGCCAUGCCUGCAGGUCGACUCUAGAAAACAUG”, which binding signal (log2 enrichment (interaction score)) [1] is on record?
Its binding signal (log2 enrichment (interaction score)) is < -7.89.

What about the binding signal (log2 enrichment (interaction score)) [2] of the same sequence?
Its binding signal (log2 enrichment (interaction score)) is < -4.83.

And the binding signal (log2 enrichment (interaction score)) [3]?
The binding signal (log2 enrichment (interaction score)) was 0.22.

What about the binding signal (log2 enrichment (interaction score)) [4] of the same sequence?
The binding signal (log2 enrichment (interaction score)) was -0.31.

And the binding signal (log2 enrichment (interaction score)) [5]?
The binding signal (log2 enrichment (interaction score)) was -0.5.

What about the binding signal (log2 enrichment (interaction score)) [6] of the same sequence?
Its binding signal (log2 enrichment (interaction score)) is 0.36.

What about the binding signal (log2 enrichment (interaction score)) [7] of the same sequence?
Its binding signal (log2 enrichment (interaction score)) is 0.16.

And the binding signal (log2 enrichment (interaction score)) [8]?
The binding signal (log2 enrichment (interaction score)) was -1.5.

What about the binding signal (log2 enrichment (interaction score)) [9] of the same sequence?
Its binding signal (log2 enrichment (interaction score)) is < -5.01.

What about the binding signal (log2 enrichment (interaction score)) [10] of the same sequence?
The binding signal (log2 enrichment (interaction score)) was -5.54.

And the binding signal (log2 enrichment (interaction score)) [11]?
The binding signal (log2 enrichment (interaction score)) was < -7.23.

And the binding signal (log2 enrichment (interaction score)) [12]?
The binding signal (log2 enrichment (interaction score)) was -0.58.

And the binding signal (log2 enrichment (interaction score)) [13]?
The binding signal (log2 enrichment (interaction score)) was 0.42.

What about the binding signal (log2 enrichment (interaction score)) [14] of the same sequence?
The binding signal (log2 enrichment (interaction score)) was -1.18.

What about the binding signal (log2 enrichment (interaction score)) [15] of the same sequence?
Its binding signal (log2 enrichment (interaction score)) is -0.02.

What about the binding signal (log2 enrichment (interaction score)) [16] of the same sequence?
The binding signal (log2 enrichment (interaction score)) was < -6.41.

What about the binding signal (log2 enrichment (interaction score)) [17] of the same sequence?
The binding signal (log2 enrichment (interaction score)) was < -5.75.

What about the binding signal (log2 enrichment (interaction score)) [18] of the same sequence?
The binding signal (log2 enrichment (interaction score)) was < -7.16.

What about the binding signal (log2 enrichment (interaction score)) [19] of the same sequence?
The binding signal (log2 enrichment (interaction score)) was -4.85.

What about the binding signal (log2 enrichment (interaction score)) [20] of the same sequence?
The binding signal (log2 enrichment (interaction score)) was < -7.4.

What about the binding signal (log2 enrichment (interaction score)) [21] of the same sequence?
The binding signal (log2 enrichment (interaction score)) was -5.1.

And the binding signal (log2 enrichment (interaction score)) [22]?
The binding signal (log2 enrichment (interaction score)) was -0.32.

What about the binding signal (log2 enrichment (interaction score)) [23] of the same sequence?
Its binding signal (log2 enrichment (interaction score)) is < -5.38.

What about the binding signal (log2 enrichment (interaction score)) [24] of the same sequence?
Its binding signal (log2 enrichment (interaction score)) is 1.2.

And the binding signal (log2 enrichment (interaction score)) [25]?
The binding signal (log2 enrichment (interaction score)) was 0.77.

And the binding signal (log2 enrichment (interaction score)) [26]?
The binding signal (log2 enrichment (interaction score)) was -2.25.

And the binding signal (log2 enrichment (interaction score)) [27]?
The binding signal (log2 enrichment (interaction score)) was 0.4.

What about the binding signal (log2 enrichment (interaction score)) [28] of the same sequence?
Its binding signal (log2 enrichment (interaction score)) is -0.22.

What about the binding signal (log2 enrichment (interaction score)) [29] of the same sequence?
Its binding signal (log2 enrichment (interaction score)) is -3.79.
